The data set in a line: Microsomal stability - Human. Also: time not given here. The format is in vitro ADME. The procedure: Selected compounds of the invention were evaluated for physico-chemical properties, including solubility, microsomal stability, protein binding and plasma stability (Table 2).
Selected compounds of the invention were evaluated for physico-chemical properties, including solubility, microsomal stability, protein binding and plasma stability (Table 3).

Several values for one entry are separate records, joined by “and”; a condition that tells them apart may be missing. Identical values can stand only once.

`CC(C)NCC(O)COc1ccc(CC(N)=O)cc1` (stereo not shown) [Atenolol, reference compound]: the “Microsomal stability Rep1” value was 103.1 % remaining and 107.3 % remaining; the “Microsomal stability Rep2” value was 97.8 % remaining and 104.1 % remaining. Under “No NADPH, non-enzymatic microsomal mechanisms only”, the “Microsomal stability No NADPH” value is 92.1 % remaining and 105.5 % remaining. Besides, the “Microsomal stability Average” value (enzymatic and non-enzymatic microsomal mechanisms) is 100.4 % remaining and 105.7 % remaining.
